# Source: patent publication US20160250303A1, “PERFORIN-2 ACTIVATORS AND INHIBITORS AS DRUG TARGETS FOR INFECTIOUS DISEASE AND GUT INFLAMMATION” (UNIVERSITY OF MIAMI, priority 2013, published 2016)
# Some results were stated once for a whole list of compounds, not compound by compound.
# System: Perforin-2
# Assay type: cell-based, human and mouse
substance,measurement,value
IFN α,time to induction of P-2 expression,6 to 8 h
